The text below walks through data of patent US20090298843A1, “TREATMENT OF HEMATOLOGICAL MALIGNANCIES WITH FTS AND A BCR-ABL TYROSINE KINASE INHIBITOR” (RAMOT AT TEL AVIV UNIVERSITY LTD., priority 2006, published 2009).

The subject of this assay is K562 cells (Human, CML). The assay can be described thus: cells. The settings on record: K562, read-out: IC50, decrease in the number of K562 cells.

SMILES strings stand for the structures.

What is called IC50 is the point on the concentration scale where inhibition reaches its midpoint. Consider `Cc1ccc(NC(=O)c2ccc(CN3CCN(C)CC3)cc2)cc1Nc1nccc(-c2cccnc2)n1` [GLEEVEC, reference compound], for which the IC50 was about 175 nM.
